Results taken from patent publication US20060122107A1 (Monash University, priority 2002, published 2006).

Test: general procedure: Fmoc solid-phase peptide synthesis
Settings: whole synthesis

| Substance | final purity (method not given) |
| --- | --- |
| PEPTIDE1{S.I.I.N.F.E.K.L}$$$$V2.0 | >70% |
| PEPTIDE1{S.I.I.N.F.E.K.[bC3Leu]}$$$$V2.0 | >80% |
| PEPTIDE1{S.I.I.N.[bC3Phe].E.K.L}$$$$V2.0 | 85% |
| PEPTIDE1{S.I.I.[bC3Asn].F.E.K.L}$$$$V2.0 | 86% |
| PEPTIDE1{S.I.[bC3Ile].N.F.E.K.L}$$$$V2.0 | 98% |
| PEPTIDE1{S.[bC3Ile].I.N.F.E.K.L}$$$$V2.0 | >80% |
| PEPTIDE1{[bC3Ser].I.I.N.F.E.K.L}$$$$V2.0 | 98% |
| Ser Ile Ile Asn Phe β^c3Glu Lys Leu | 95% |

HELM strings list residues between dots; [ac] is acetyl, [am] amide, other brackets name non-standard units.
